Laboratory results taken from patent publication US20120214173A1, “Methods of Identifying Modulators of an Ehd Polypeptide” (priority 2007, published 2012).
Like-named read-outs stand apart in the source and are kept apart here. Not every detail of the peptide structures is certain; ends, links or a residue may be inferred. Ends that are not written are not given here.

Target: T1, EH-domain of EHD2 (Mus musculus, UniProt Q8BH64)
T1 sequence (Q8BH64 449-537 limits assumed): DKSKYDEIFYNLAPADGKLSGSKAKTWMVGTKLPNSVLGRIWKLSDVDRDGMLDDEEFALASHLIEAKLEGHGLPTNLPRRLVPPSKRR
Test: ITC peptide binding to the EH-domain of EHD2
Settings: ITC at 10° C., 100 mM HEPES (pH 7.5), 50 mM NaCl, 200 μM CaCl2, read-out: affinity of xPF peptide to the EH-domain of EHD2 by ITC
Text: EH-domains are low affinity protein-protein interactors normally found in endocytic multi-subunit assemblies. A likely purpose of the EH-domain is in recruitment of the protein to sites of action. […] An alternative explanation for the function of the EH-domain in the oligomer can be proposed based on the presence of two conserved PF motifs (NPF and IPF) in a disordered surface loop at the side of the G-domain between β-sheet 2A and 2B. In our proposed oligomer, the EH-domains from one dimer are close to the side-site NPF motif of the adjacent dimer (FIG. 4c) and thus after oligomerisation on membranes they may switch position from the top site position in the dimer to the side site in the opposing dimer. […] A dominant negative mutant in C. elegans Rme1 is found in the linker between the EH-domain and the helical domain^3 pointing to the importance of this flexible linker.

Work on KLNPFGNT [KLNPFGNT] yielded a Kd (listed as side site NPF peptide) of ~130 µM and a Kd of 130 ± 20 µM.
